The full ranking holds about 33,000 sequences; the median of “E-score (-0.5 to 0.5)” is about -0.016, and the highest 2% start at about 0.3. The list shows a part of the results.
target: T1, Yer184c (UniProt P39961); assay: PBM E-score (8-mer binding enrichment) (E-score (-0.5 to 0.5)); higher = stronger / more preferred TF binding; conditions: protein concentration: 100 nM; construct: GST-full length
T1 sequence: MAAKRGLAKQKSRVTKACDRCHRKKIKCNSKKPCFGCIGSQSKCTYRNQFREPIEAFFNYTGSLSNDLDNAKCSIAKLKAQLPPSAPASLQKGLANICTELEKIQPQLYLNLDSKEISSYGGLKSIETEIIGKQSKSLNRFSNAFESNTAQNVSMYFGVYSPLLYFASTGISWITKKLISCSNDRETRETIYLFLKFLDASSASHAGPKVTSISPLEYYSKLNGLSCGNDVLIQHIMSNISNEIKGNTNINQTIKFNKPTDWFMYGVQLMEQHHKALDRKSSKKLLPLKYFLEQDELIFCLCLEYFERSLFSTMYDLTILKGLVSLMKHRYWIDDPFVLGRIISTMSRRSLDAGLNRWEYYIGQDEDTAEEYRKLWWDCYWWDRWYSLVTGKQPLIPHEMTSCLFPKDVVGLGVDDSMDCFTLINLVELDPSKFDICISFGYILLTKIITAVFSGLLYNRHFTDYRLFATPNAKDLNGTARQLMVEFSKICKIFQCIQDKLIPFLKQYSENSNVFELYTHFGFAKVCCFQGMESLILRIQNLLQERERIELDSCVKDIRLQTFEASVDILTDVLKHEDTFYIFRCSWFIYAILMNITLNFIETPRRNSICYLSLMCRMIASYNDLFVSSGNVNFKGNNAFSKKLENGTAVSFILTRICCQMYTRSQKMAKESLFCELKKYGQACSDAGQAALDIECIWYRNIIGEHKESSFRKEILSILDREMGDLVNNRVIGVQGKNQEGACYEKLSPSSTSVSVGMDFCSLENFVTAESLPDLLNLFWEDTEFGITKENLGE
In short: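 Yeast transcription factors carrying a GST tag, as full-length proteins or DNA-binding domains, were produced by PURExpress in vitro transcription/translation. About 100-200 nM protein was applied to universal all-10-mer Agilent arrays, double-stranded by primer extension on fresh or once-stripped slides. Bound protein was detected with fluorescent anti-GST, and scans were normalised with masliner. The Universal PBM Analysis Suite gave each ungapped eight-base word, pooled with its reverse complement, an E-score, a modified Wilcoxon-Mann-Whitney statistic.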

First: ACCAAGCT
Second: CACCAGGG
The “PBM E-score” value of the first is higher: -0.0189 for the first, -0.309 for the second.

Compared with ACGAGTAT, AAATGAAG is higher in “PBM E-score” value: -0.195 for the first, 0.0447 for the second.

Going from AACGCGCA to ACTGCTGA, the “PBM E-score” value falls from -0.0307 to -0.2.

Going from ACAAACCA to ATACCCTG, the “PBM E-score” value falls from -0.0386 to -0.0448.

Compared with GCCATCTA, CCTGTAGA is higher in “PBM E-score” value: -0.122 for the first, -0.094 for the second.

Going from AGAATAAG to AGATCAAA, the “PBM E-score” value falls from 0.0963 to 0.0845.

First: CTAAGCCA
Second: CTGAGTAA
The “PBM E-score” value of the first is lower: -0.242 for the first, -0.144 for the second.

Compared with ACTCCACG, ATAATAAC is higher in “PBM E-score” value: -0.142 for the first, 0.121 for the second.

First: AACCTAAC
Second: AAGGTGGG
The “PBM E-score” value of the first is higher: 0.0518 for the first, -0.336 for the second.

Compared with TGCCCAAA, CCAGATAA is higher in “PBM E-score” value: -0.0685 for the first, 0.0399 for the second.

Going from GGCATTTA to ATGTGTAC, the “PBM E-score” value rises from -0.0741 to 0.0767.

Compared with ATGAGCTG, AGCACTAC is lower in “PBM E-score” value: -0.105 for the first, -0.208 for the second.

Going from ACCCTGCG to AAGTGCCT, the “PBM E-score” value falls from -0.107 to -0.332.

Compared with ATTAGCTA, CAACCGGC is higher in “PBM E-score” value: -0.0375 for the first, 0.323 for the second.

Compared with ATTCGCCC, CAAGCAGA is higher in “PBM E-score” value: -0.127 for the first, 0.0342 for the second.

First: ATAGCGCC
Second: GCGGAGGA
The “PBM E-score” value of the first is higher: 0.0587 for the first, -0.132 for the second.

Compared with AAACGGAA, ACGCGTGG is lower in “PBM E-score” value: 0.403 for the first, 0.0299 for the second.

First: CAACTAAC
Second: CCAGACGC
The “PBM E-score” value of the first is higher: 0.236 for the first, -0.283 for the second.

Compared with CCTATGGA, CCTGGTGC is higher in “PBM E-score” value: -0.186 for the first, -0.0316 for the second.

Compared with AGGTCAGA, ATGCTCGG is higher in “PBM E-score” value: -0.155 for the first, 0.11 for the second.

Compared with TTAGTCAA, CTCCCGGC is higher in “PBM E-score” value: -0.0771 for the first, 0.28 for the second.

Compared with AAACGTCT, CGTTGTCA is lower in “PBM E-score” value: 0.0794 for the first, -0.00172 for the second.

Compared with AAGTGGAT, CCGTGACA is higher in “PBM E-score” value: -0.119 for the first, -0.0256 for the second.

First: AGGCTTTG
Second: CGGGTGGC
The “PBM E-score” value of the first is lower: -0.172 for the first, -0.0483 for the second.

Going from GATCTGTA to AGGTCATG, the “PBM E-score” value falls from -0.0435 to -0.148.

Compared with GTATCTGA, AGTCAGCA is higher in “PBM E-score” value: -0.144 for the first, -0.0623 for the second.

First: ACAGGGGA
Second: TACGTGGA
The “PBM E-score” value of the first is lower: -0.249 for the first, -0.2 for the second.

First: CCTTGTCC
Second: CGTTGAAG
The “PBM E-score” value of the first is lower: -0.0002 for the first, 0.0128 for the second.

First: CTCTGCTC
Second: AGCTTAAT
The “PBM E-score” value of the first is lower: -0.0669 for the first, 0.201 for the second.

Compared with CCTCTAGA, ATACTTGC is higher in “PBM E-score” value: -0.0844 for the first, -0.0392 for the second.

Compared with GCGAGTAC, CCGAGGCC is lower in “PBM E-score” value: 0.0596 for the first, 0.0408 for the second.

First: CAACTGTC
Second: ATACTTCC
The “PBM E-score” value of the first is lower: -0.084 for the first, 0.0334 for the second.

Going from GACTGGGC to GAATACTC, the “PBM E-score” value rises from -0.196 to -0.0235.

Going from ATACGAGA to ACGTGGGG, the “PBM E-score” value falls from -0.148 to -0.255.

Going from CGATCTGC to GCGAGGTA, the “PBM E-score” value falls from 0.0352 to -0.0496.

Going from GTCGATGA to ACTCGGGG, the “PBM E-score” value falls from 0.0373 to -0.0276.

Going from GGACTGTA to ACATCGCT, the “PBM E-score” value falls from -0.0506 to -0.119.

Compared with CGGCAAAC, AGGTTCCA is lower in “PBM E-score” value: 0.299 for the first, -0.0593 for the second.

Compared with CCTCCAGA, AATGCGGT is higher in “PBM E-score” value: -0.0632 for the first, 0.0128 for the second.

First: AGGCAGAT
Second: CGTTTTAG
The “PBM E-score” value of the first is lower: -0.0853 for the first, -0.0367 for the second.

First: GGACCACA
Second: GCTCAGGA
The “PBM E-score” value of the first is higher: 0.0635 for the first, 0.00189 for the second.

Compared with AAAGTGTT, ACGAAGTA is lower in “PBM E-score” value: 0.133 for the first, -0.0417 for the second.

Going from TAGAACGA to ACTCACCC, the “PBM E-score” value falls from 0.11 to 0.0156.

Compared with ACTCCGCC, AATATGTA is higher in “PBM E-score” value: 0.00671 for the first, 0.25 for the second.

Compared with AGGTTCGC, ACGACAGG is higher in “PBM E-score” value: -0.153 for the first, -0.0972 for the second.

First: CAAGTGAA
Second: TGAACGAA
The “PBM E-score” value of the first is higher: 0.025 for the first, -0.118 for the second.

Going from ATACACCC to GGAGTCCA, the “PBM E-score” value falls from 0.0108 to -0.032.

First: TAATTAAA
Second: CATCCCTC
The “PBM E-score” value of the first is higher: 0.12 for the first, -0.21 for the second.

First: ATCATTGG
Second: TAAATGCA
The “PBM E-score” value of the first is lower: -0.149 for the first, 0.072 for the second.

Compared with AGCGTTGC, AAGAGAAG is higher in “PBM E-score” value: -0.00053 for the first, 0.0649 for the second.

Compared with AGTCAGAG, TAATCGCA is higher in “PBM E-score” value: -0.0672 for the first, 0.0619 for the second.

Going from CAACGGCG to AGTGTTGC, the “PBM E-score” value falls from 0.0934 to 0.0906.

Going from CCTTTTTA to CGAGGTTA, the “PBM E-score” value rises from -0.0252 to -0.00293.

Compared with TGAGGCCA, ACTGTGCA is lower in “PBM E-score” value: 0.0298 for the first, -0.153 for the second.

First: AGCCTACG
Second: CATTGGAC
The “PBM E-score” value of the first is higher: 0.133 for the first, -0.0168 for the second.

First: CGTAAATC
Second: TCGGTGAA
The “PBM E-score” value of the first is lower: 0.0501 for the first, 0.105 for the second.

Compared with AAGCTTAC, TAACATGA is higher in “PBM E-score” value: -0.104 for the first, 0.0607 for the second.

First: AAAACCTC
Second: CGCCCTGC
The “PBM E-score” value of the first is higher: 0.158 for the first, -0.082 for the second.

Compared with GAGGGAGA, ATTAAGCA is higher in “PBM E-score” value: -0.14 for the first, -0.00063 for the second.

Going from CAGTGCTC to CACGTACA, the “PBM E-score” value falls from -0.101 to -0.138.

Compared with AGTCCGCC, ATAGTAAG is lower in “PBM E-score” value: 0.169 for the first, 0.0588 for the second.

Going from GCGAGTTA to CAGCTTCG, the “PBM E-score” value falls from 0.0711 to -0.0525.

Going from GACTTCGA to CGCAACCG, the “PBM E-score” value rises from -0.0506 to 0.266.

First: GATTTAGA
Second: AAGCGTAC
The “PBM E-score” value of the first is higher: 0.166 for the first, -0.243 for the second.

Going from ATAGGATG to AATCTATA, the “PBM E-score” value rises from -0.115 to 0.201.

Going from AGCGAGGC to CGGGGTGA, the “PBM E-score” value rises from -0.11 to 0.0178.

Compared with GAAACTTA, CGTAGAAA is lower in “PBM E-score” value: 0.197 for the first, 0.129 for the second.

First: AGTTTTTA
Second: AGATTCAT
The “PBM E-score” value of the first is higher: 0.191 for the first, -0.0957 for the second.

Going from AGGAAGCA to CAGTCGCC, the “PBM E-score” value rises from -0.138 to -0.021.

Compared with TGAACCCA, CCTGAGGA is lower in “PBM E-score” value: 0.0217 for the first, -0.11 for the second.

First: CAAGTGGA
Second: AAACTTTA
The “PBM E-score” value of the first is lower: -0.158 for the first, 0.135 for the second.

First: AGCCGGAT
Second: CGTACTAC
The “PBM E-score” value of the first is higher: 0.402 for the first, -0.00152 for the second.

Compared with CACAACAA, AATCTGGT is lower in “PBM E-score” value: 0.108 for the first, 0.00445 for the second.

Compared with GACCAAAC, GCTCAGCA is lower in “PBM E-score” value: -0.0172 for the first, -0.0401 for the second.

Going from TAGTCCGA to AAGTATTA, the “PBM E-score” value falls from 0.203 to 0.0259.

First: ACACCCGC
Second: ACCCCTAC
The “PBM E-score” value of the first is higher: 0.0605 for the first, -0.428 for the second.

Compared with AATAGGTG, CTTGGACA is higher in “PBM E-score” value: -0.178 for the first, -0.101 for the second.

Compared with AGCCCTAT, CTTACACC is lower in “PBM E-score” value: -0.119 for the first, -0.162 for the second.

Going from AAAAACAT to CGAGCAGC, the “PBM E-score” value falls from 0.027 to -0.0206.

Going from GAGGATCA to GTGGTTGA, the “PBM E-score” value falls from -0.044 to -0.0466.

Compared with AATTTAGT, AGATGGAA is lower in “PBM E-score” value: 0.234 for the first, 0.0987 for the second.

First: TGCGGCCA
Second: CCAAATGG
The “PBM E-score” value of the first is lower: -0.0382 for the first, 0.0226 for the second.

First: CGGTTCGC
Second: AAGGCGTA
The “PBM E-score” value of the first is higher: 0.0153 for the first, -0.0885 for the second.

Compared with ATAGGCTG, AGTCAGGG is lower in “PBM E-score” value: -0.0893 for the first, -0.368 for the second.

First: ACTATGTC
Second: AGCCTTGC
The “PBM E-score” value of the first is higher: -0.0654 for the first, -0.15 for the second.

First: ACGTAGGG
Second: GCTTCGAC
The “PBM E-score” value of the first is lower: -0.335 for the first, -0.19 for the second.

Reference: the supplement of paper PMC3334620
